# Values from PubChem BioAssay AID1508588 (Peter MacCallum Cancer Centre, 2020)
# Assay: 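Knock-downs boosting vemurafenib effects on melanoma cell growth or lactate release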 (primary screen)
# Cell system: human WM266.4 melanoma cells (BRAF V600 mutant)
# Knock-down reagent: siRNA pool against human genes, 40 nM
# Time to read-out: 96 h from transfection to read-out
# Challenge: vemurafenib 300 nM (about IC25), added 48 h after transfection, for 48 h; comparison arm got DMSO vehicle only
# Read-out: 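Ratios to non-targeting siRNA for cell gain, counted as DAPI nuclei after minus before drug and averaged over two replicates, and for absorbance-read medium lactate per cell; both binned into fold-change classes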
# Reading the numbers: cell gain with vemurafenib: higher = more cell gain than with non-targeting siRNA; lactate per cell with vemurafenib: higher = more lactate made per cell
# Rule for the call: 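Enhancement is called by pairing each knock-down's vehicle-arm and drug-arm fold-change classes for viability or glycolysis; which class combinations qualify is not given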
# Meaning of the calls: active = enhances vemurafenib effect; inactive = no enhancement seen
# In all, the deposit lists about 18,000 reagents; shown is an unselected part. 790 of them (4.4%) were called active. 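Calls rest on a combination of fold-change classes in drug and vehicle arms, not all shown here.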 Entries without a mark were called inactive. Reagent sequences are not shown.
cell gain with vemurafenib,lactate per cell with vemurafenib,gene
0.34,0.96,CRCT1 (GeneID 54544)
0.81,0.61,MAPKAPK2 (GeneID 9261)
-0.08,2.36,ROBO3 (GeneID 64221)
0.57,0.7,CARS1 (GeneID 833)
0.62,0.66,TBCEL (GeneID 219899)
0.09,1.47,GML (GeneID 2765)
0.41,1.66,CPS1 (GeneID 1373)
0.94,0.7,STX1A (GeneID 6804)
0.91,1,IGSF21 (GeneID 84966)
1.32,1.25,TRPM4 (GeneID 54795)
0.75,0.65,NEFM (GeneID 4741)
0.72,1.06,MKX (GeneID 283078)
0.76,0.65,PRR34 (GeneID 55267)
0.62,0.8,NUB1 (GeneID 51667)
0.63,0.72,GBF1 (GeneID 8729)
0.5,0.92,EMC4 (GeneID 51234)
0.36,2.03,OCM2 (GeneID 4951)
0.77,1.08,PSD (GeneID 5662)
0.15,1.21,CD86 (GeneID 942)
0.25,0.74,CRYM (GeneID 1428)
0.68,0.66,FERD3L (GeneID 222894)
0.57,0.38,MAD1L1 (GeneID 8379)
0.48,1.04,FADS6 (GeneID 283985)
0.73,0.76,ZNF235 (GeneID 9310)
0.69,1.06,CDC73 (GeneID 79577)
1.1,0.84,ZNF333 (GeneID 84449)
0.35,0.82,HHATL (GeneID 57467)
0.11,1.43,MAPK15 (GeneID 225689)
0.73,0.8,ZNF626 (GeneID 199777)
0.35,0.75,CEACAM21 (GeneID 90273)
0.81,1.02,TXLNB (GeneID 167838)
0.73,1.6,CTDSPL (GeneID 10217)
0.6,0.74,SSR4 (GeneID 6748)
0.87,1.55,PSME4 (GeneID 23198)
0.54,0.88,ANG (GeneID 283)
0.92,1.38,MTIF2 (GeneID 4528)
0.38,1.58,JDP2 (GeneID 122953)
0.57,0.7,POLB (GeneID 5423)
0.26,0.79,MMP11 (GeneID 4320)
0.76,0.73,GAREM1 (GeneID 64762)
1.15,0.9,CFAP20 (GeneID 29105)
0.76,0.8,JUNB (GeneID 3726)
0.43,0.76,IER3IP1 (GeneID 51124)
0.58,0.78,SOAT1 (GeneID 6646)
0.95,0.8,TYW2 (GeneID 55039)
0.32,1.68,FRAS1 (GeneID 80144)
0.15,1.09,ZNF599 (GeneID 148103)
0.48,1.33,MED24 (GeneID 9862)
-0.02,2.82,XIRP1 (GeneID 165904)
0.81,1.12,BAGE5 (GeneID 85316)
0.43,1.9,RGPD5 (GeneID 84220)
0.48,1.39,PEX11B (GeneID 8799)
0.9,0.69,NOP10 (GeneID 55505)
0.44,1.9,TXN (GeneID 7295)
1.22,0.57,RNF181 (GeneID 51255)
0.29,1.33,OXSM (GeneID 54995)
0.88,1.1,CCZ1B (GeneID 221960)

Quoted from above for reference:
cell gain with vemurafenib,lactate per cell with vemurafenib,gene
0.62,0.66,TBCEL (GeneID 219899)
0.09,1.47,GML (GeneID 2765)
0.41,1.66,CPS1 (GeneID 1373)
0.94,0.7,STX1A (GeneID 6804)
0.91,1,IGSF21 (GeneID 84966)
